According to PubChem BioAssay AID652054 (National Center for Advancing Translational Sciences (NCATS), 2013):
Hit rate of the full screen: of about 360,000 compounds, about 9,100 (2.5%) were called active. Inconclusive means that the source gave no clear call. Such entries were picked first, then a sample of the others. No stated cut-off is given here; in the data, active means max response below about -50%; inconclusive means no clear call, values can overlap the other calls; inactive means above that.

The chains behind the UniProt entries cited, without tags or fusion partners.
UniProt P35462, whole entry, looked up: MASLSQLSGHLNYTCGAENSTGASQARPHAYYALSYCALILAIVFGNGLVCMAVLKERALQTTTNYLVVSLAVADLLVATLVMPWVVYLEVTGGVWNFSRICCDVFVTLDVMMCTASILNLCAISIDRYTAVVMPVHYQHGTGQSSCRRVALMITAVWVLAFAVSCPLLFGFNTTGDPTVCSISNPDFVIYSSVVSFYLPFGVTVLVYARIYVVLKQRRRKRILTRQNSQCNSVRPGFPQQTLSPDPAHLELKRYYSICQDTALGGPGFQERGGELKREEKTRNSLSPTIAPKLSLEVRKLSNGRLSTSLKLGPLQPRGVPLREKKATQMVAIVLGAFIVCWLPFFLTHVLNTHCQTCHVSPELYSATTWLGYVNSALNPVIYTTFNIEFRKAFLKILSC

Target: D(3) dopamine receptor (Homo sapiens) (UniProt P35462)
Assay: qHTS of D3 Dopamine Receptor Antagonist: qHTS
Details: D3R cells, DiscoveRx beta-arrestin luminescence, antagonist mode; hits give low values
Text: D3 DARs represent a very important target for the treatment of several neuropsychiatric disorders. Indeed, one of the most promising therapeutic applications for the D3 DAR is in the area of addiction and related disorders. […] These findings have been observed with a number of addictive substances including cocaine, amphetamine, nicotine, and alcohol. […] Antagonism of the D3 DAR may also be therapeutic in the treatment of schizophrenia or psychosis. […] Since the D3 DAR is expressed in areas of the CNS associated with the control of mood and emotion, it has been hypothesized that selective antagonism of the D3 DAR may be effective in treating psychosis without inducing the motor side effects typically seen with D2 DAR antagonists.
This part of the project aims to discover novel antagonist.
NIH Chemical Genomics Center [NCGC]
NIH Molecular Libraries Probe Centers Network [MLPCN]
Assay Submitter (PI): David Sibley, NINDS
Freshly passaged cells are plated in 1536 well white, solid bottom plates at a density of 1500 cells/well in 3microl of complete media. After an overnight incubation at 37 degrees C in 5% CO2, cells are loaded with 23nl of test compound from the compound library (as well as dopamine controls) using a 1536 pintool and incubated at 37 degrees C for 90 minutes. Two microliters of DiscoveRx reagent is then added to all cells, and they are incubated for an additional 30 - 60 minutes at room temperature. Following incubation, luminescence is measured on a ViewLux CCD-based luminometer reader using a 20 sec exposure time.
On the % scale 0 is the no-effect control and ±100 the full control effect.

Max response, negative = inhibition, inactive:
COc1cccc2cc(C(C)N(CCCN3CCOCC3)C(=O)Nc3ccccc3)oc12 (stereo not given) -6.66%
CCS(=O)(=O)N1CCC(C(=O)NCc2ccccc2OC)CC1 2.04%
COc1cccc(NC(=O)COC(=O)c2c(C)nn(-c3ccccc3)c2C)c1 -5.67%
C/C(=N\NC(=S)NC(C)C)c1ccccc1 -3.15%
Cc1ccc(C)c(N2CCN(C(=O)c3ccc(CS(=O)(=O)c4ccccc4C)o3)CC2)c1 28.6%
C[C@H](NC(=O)c1nc[nH]c1C(=O)N(C)Cc1ccccc1)C(=O)OC(C)(C)C 5.03%
COCCSc1nnc(NC(=O)CCS(=O)(=O)Cc2ccccc2)s1 0.795%
O=C(CSc1cccc2cccnc12)Nc1ccccc1F 4.75%
NC(=S)N/N=C/c1ccccc1[N+](=O)[O-] -14.2%
O=C(NCC1CCCO1)C1CCN(C2CCN(CCCC3CCCC3)CC2)CC1 (stereo not given) 0.561%

Max response, negative = inhibition, active:
CC1(C)Cc2nc3sc4c(=O)n(Cc5ccccc5)cnc4c3cc2CS1 -65.5%
Cc1ccc(S(=O)(=O)/N=C2/NC(=O)/C(=C\c3cc(Br)cc(Br)c3O)S2)cc1 -52.6%
O=C(Nc1ccc2oc(-c3ccncc3)nc2c1)c1c(F)c(F)c(F)c(F)c1F -66%
Cc1c(Cl)cccc1NC(=S)NNc1ncc(C(F)(F)F)cc1Cl -75.5%
Cc1ccc2sc(N(CCN(C)C)C(=O)c3ccc4ccccc4c3)nc2c1C -73.1%
Cc1c(C(=O)Nc2ccc(S(=O)(=O)N(C)C3CCN(C)CC3)cc2)oc2c(Cl)cccc12 -66.2%
OC(CNC1CCCc2ccccc21)COc1c(Cl)cccc1Cl (stereo not given) -78.3%
Cc1ccc2c(c1)C(=O)C(=O)N2c1ccc(Cl)cc1 -54.8%
C/C(=N/NC(=O)CN(c1ccccc1)S(=O)(=O)c1ccccc1)c1ccccc1O -51.7%

Max response, negative = inhibition, inconclusive:
O=C(NC(=S)Nc1ccccc1N1CCCC1)c1ccc(F)cc1 -48%
Cc1cccn2c(=O)c3cc(C#N)c(=NC(=O)c4ccncc4)n(CCCOC(C)C)c3nc12 -41.8%
CC1CCN(C(=O)c2ccc(S(=O)(=O)Cc3cc(F)ccc3F)c([N+](=O)[O-])c2)CC1 -34%
Cc1cc(N2CCCCC2)nc(SCc2ccc(C#N)cc2)n1 -34%
COc1ccccc1-c1ccc([C@@H]2C[C@H]3[C@H](CON3C)CN2C(=O)c2ccc(-c3ccccc3)cc2)cc1 -34.1%
O=C(N/N=C/c1ccc[nH]1)c1cccnc1 -43.7%
Cc1nnc(SCC(=O)NC2CCCc3ccccc32)n1-c1ccccc1 (stereo not given) -34.1%
C/C(=N\Nc1nc(N)cc(Cl)n1)c1cccc(N)c1 -48.6%
COC(=O)c1cnc(NNC(=O)c2ccc([N+](=O)[O-])cc2)nc1C(F)(F)F -34.9%
COc1ccccc1OCCNC(=O)CNC(=O)c1ccc(C(C)(C)C)cc1 -37.5%
CC(C)COc1ccc(C(=O)OCCN2CCOCC2)cc1 -32.1%
COc1ccccc1/C=C\C(=O)NCC(=O)N/N=C/c1cccc(OC)c1O -32.9%
O=C(O)c1cccc(CN2C(=O)S/C(=C/c3ccccc3[N+](=O)[O-])C2=O)c1 -31.8%
CCc1cc2cc(C(=O)Nc3ccc(C)cc3)sc2s1 -35.7%
CCOc1ccc(C(=O)NCCC2=CCCCC2)cc1OCC -46.6%
CN(C)c1ccc(C(CNS(=O)(=O)c2ccc(F)c(F)c2)c2c[nH]c3ccccc23)cc1 (stereo not given) -33.5%
CCOC(=O)C1=CC[C@@H](c2cc3cc(OC)ccc3n2C)N(S(=O)(=O)c2ccc(C)cc2)[C@H]1C(=O)OCC -35.5%
CCOc1ccc(C(=O)CN2CCN(S(=O)(=O)c3ccc(OC)cc3)CC2)cc1 -38%
CN(C)S(=O)(=O)c1ccc(-c2ccccc2)cc1 -31.8%
O=c1c2cc(Br)ccc2nc(-c2cccc(C(F)(F)F)c2)n1O -43.6%
COc1cccc(N2CC(C)Cn3c2nc2c3c(=O)[nH]c(=O)n2C)c1 (stereo not given) -37.3%
Cc1ccc(N2C(=O)N3[C@H](c4ccc(Br)cc4)[C@@H]4C(=O)N(C(C)(C)C)C(=O)[C@@H]4[C@]3(C)C2=O)cc1 -49%
CC(=O)Nc1cccc(NC(=O)c2sc3ncn(CC(=O)N4CCCCC4)c(=O)c3c2C)c1 -49.9%
c1ccc(CNc2ncnc3c2cnn3-c2ccccc2)cc1 -42.7%
C=CCOc1ccc(/C(O)=C2/C(=O)C(=O)N(CCN3CCOCC3)C2c2ccc(C)cc2)cc1 (stereo not given) -36.6%
Cc1cccc(OCc2nnc(N)s2)c1C -47.6%
CNc1nc(OC)nc(N(C#N)CN2C(=O)c3ccccc3S2(=O)=O)n1 -42.3%
O=[N+]([O-])c1cc(C(F)(F)F)ccc1Sc1ccccn1 -33.6%
Cc1ccc2c(c1)sc[n+]2Cc1ccccc1 -30%
CCNS(=O)(=O)c1ccc(S(=O)(=O)N(Cc2ccccn2)C2CCCCC2)cc1 -33.3%
CCCN1CCC(=O)N([C@H](CSc2ccccc2)c2ccccc2)CC1 -44.4%
Cn1c(=O)c2cc(NC(=S)NC3CCCCC3)ccc2n1Cc1ccc(Cl)cc1 -37.5%
COc1ccc(Cl)cc1N1C(=O)/C(=C/c2sccc2C)N=C1SCC(=O)NC1CC1 -37.7%
Cc1nn(-c2ccccc2)c(N)c1Sc1ccccc1[N+](=O)[O-] -38.9%
COc1ccccc1C1(CC(=O)O)CCOC(C(C)C)C1 (stereo not given) -31.2%
CCOc1ccc(-n2c(=O)c3sccc3n(CC(=O)NCc3ccco3)c2=O)cc1 -35.2%

10 compounds out of the list, sorted by count of non-hydrogen atoms, largest number first:
Max response, negative = inhibition, inconclusive:
COc1ccccc1-c1ccc([C@@H]2C[C@H]3[C@H](CON3C)CN2C(=O)c2ccc(-c3ccccc3)cc2)cc1 -34.1%
COc1ccc(Cl)cc1N1C(=O)/C(=C/c2sccc2C)N=C1SCC(=O)NC1CC1 -37.7%
COc1ccccc1/C=C\C(=O)NCC(=O)N/N=C/c1cccc(OC)c1O -32.9%
Cc1nnc(SCC(=O)NC2CCCc3ccccc32)n1-c1ccccc1 (stereo not given) -34.1%
CCCN1CCC(=O)N([C@H](CSc2ccccc2)c2ccccc2)CC1 -44.4%
COc1cccc(N2CC(C)Cn3c2nc2c3c(=O)[nH]c(=O)n2C)c1 (stereo not given) -37.3%
c1ccc(CNc2ncnc3c2cnn3-c2ccccc2)cc1 -42.7%
O=[N+]([O-])c1cc(C(F)(F)F)ccc1Sc1ccccn1 -33.6%
Cc1ccc2c(c1)sc[n+]2Cc1ccccc1 -30%
O=C(N/N=C/c1ccc[nH]1)c1cccnc1 -43.7%
